Where “and” joins values, the source holds several entries; their conditions need not be identical. Equal entries are not always repeated. This continues a long series; more values of the same kind are listed elsewhere.
Test: Drug-drug interaction study: plasma pharmacokinetics of single oral famitinib 25 mg alone and with steady-state rifampin 600 mg once daily (LC-MS/MS, noncompartmental analysis)
Conditions: individual subjects

For `CCN(CC)CCN1CCc2[nH]c(/C=C3\C(=O)Nc4ccc(F)cc43)c(C)c2C1=O` [famitinib, Famitinib malate], the “Plasma concentration of famitinib, 1h” value (famitinib + rifampin period) was 7.776 ng/mL and 10.518 ng/mL and 3.966 ng/mL and 5.914 ng/mL and 0.552 ng/mL and 12.500 ng/mL and 4.647 ng/mL and 15.609 ng/mL and 11.994 ng/mL and 14.611 ng/mL and 1.812 ng/mL and 8.640 ng/mL and 6.535 ng/mL and 4.958 ng/mL and 9.293 ng/mL and 10.712 ng/mL and 10.116 ng/mL and 10.765 ng/mL and 19.718 ng/mL and 23.441 ng/mL, the “Plasma concentration of famitinib, 2h” value (famitinib + rifampin period) was 14.862 ng/mL and 14.759 ng/mL and 13.699 ng/mL and 7.465 ng/mL and 3.285 ng/mL and 15.622 ng/mL and 8.853 ng/mL and 13.667 ng/mL and 16.315 ng/mL and 19.826 ng/mL and 3.411 ng/mL and 8.191 ng/mL and 14.774 ng/mL and 9.501 ng/mL and 9.987 ng/mL and 13.531 ng/mL and 14.964 ng/mL and 16.225 ng/mL and 17.565 ng/mL and 16.778 ng/mL and the “Plasma concentration of famitinib, 3h” value (famitinib + rifampin period) was 15.259 ng/mL and 13.022 ng/mL and 15.073 ng/mL and 8.838 ng/mL and 7.065 ng/mL and 13.314 ng/mL and 12.114 ng/mL and 12.313 ng/mL and 14.027 ng/mL and 17.332 ng/mL and 5.397 ng/mL and 8.789 ng/mL and 12.359 ng/mL and 10.523 ng/mL and 14.634 ng/mL and 12.982 ng/mL and 13.901 ng/mL and 11.282 ng/mL and 16.888 ng/mL and 17.548 ng/mL. For the same compound, the “Plasma concentration of famitinib, 4h” value (famitinib + rifampin period) was 13.324 ng/mL and 12.820 ng/mL and 13.884 ng/mL and 9.347 ng/mL and 11.443 ng/mL and 17.240 ng/mL and 13.801 ng/mL and 12.155 ng/mL and 13.689 ng/mL and 13.608 ng/mL and 5.156 ng/mL and 10.280 ng/mL and 8.544 ng/mL and 10.239 ng/mL and 8.814 ng/mL and 8.742 ng/mL and 14.747 ng/mL and 10.966 ng/mL and 16.887 ng/mL and 14.176 ng/mL, the “Plasma concentration of famitinib, 5h” value (famitinib + rifampin period) was 18.925 ng/mL and 19.573 ng/mL and 16.893 ng/mL and 12.716 ng/mL and 20.885 ng/mL and 17.053 ng/mL and 17.122 ng/mL and 19.816 ng/mL and 21.770 ng/mL and 22.538 ng/mL and 14.295 ng/mL and 18.207 ng/mL and 26.542 ng/mL and 14.625 ng/mL and 15.665 ng/mL and 16.668 ng/mL and 25.975 ng/mL and 20.293 ng/mL and 21.859 ng/mL and 21.043 ng/mL and the “Plasma concentration of famitinib, 6h” value (famitinib + rifampin period) was 21.751 ng/mL and 20.560 ng/mL and 13.295 ng/mL and 23.440 ng/mL and 19.179 ng/mL and 21.570 ng/mL and 19.751 ng/mL and 21.278 ng/mL and 21.342 ng/mL and 14.830 ng/mL and 15.025 ng/mL and 23.245 ng/mL and 15.367 ng/mL and 16.932 ng/mL and 15.506 ng/mL and 24.692 ng/mL and 19.501 ng/mL and 19.687 ng/mL and 21.937 ng/mL. For the same compound, the “Plasma concentration of famitinib, 8h” value (famitinib + rifampin period) was 22.088 ng/mL and 17.194 ng/mL and 18.589 ng/mL and 14.154 ng/mL and 20.082 ng/mL and 15.200 ng/mL and 18.343 ng/mL and 15.005 ng/mL and 15.815 ng/mL and 17.957 ng/mL and 11.990 ng/mL and 12.882 ng/mL and 23.009 ng/mL and 13.079 ng/mL and 14.206 ng/mL and 13.607 ng/mL and 24.906 ng/mL and 17.258 ng/mL and 19.760 ng/mL and 21.381 ng/mL, the “Plasma concentration of famitinib, 12h” value (famitinib + rifampin period) was 10.125 ng/mL and 18.760 ng/mL and 11.854 ng/mL and 13.476 ng/mL and 16.479 ng/mL and 15.079 ng/mL and 12.851 ng/mL and 14.643 ng/mL and 11.152 ng/mL and 14.007 ng/mL and 9.937 ng/mL and 14.329 ng/mL and 10.247 ng/mL and 12.360 ng/mL and 13.791 ng/mL and 9.364 ng/mL and 10.898 ng/mL and 16.015 ng/mL and 11.441 ng/mL and 13.329 ng/mL and the “Plasma concentration of famitinib, 24h” value (famitinib + rifampin period) was 5.201 ng/mL and 8.717 ng/mL and 4.514 ng/mL and 6.771 ng/mL and 7.192 ng/mL and 7.459 ng/mL and 6.286 ng/mL and 6.807 ng/mL and 5.753 ng/mL and 6.065 ng/mL and 5.532 ng/mL and 7.040 ng/mL and 4.040 ng/mL and 5.593 ng/mL and 6.278 ng/mL and 4.988 ng/mL and 4.842 ng/mL and 7.070 ng/mL and 5.582 ng/mL and 6.911 ng/mL. For the same compound, the “Plasma concentration of famitinib, 48h” value (famitinib + rifampin period) was 1.523 ng/mL and 2.168 ng/mL and 1.255 ng/mL and 1.960 ng/mL and 1.981 ng/mL and 2.284 ng/mL and 1.725 ng/mL and 2.061 ng/mL and 2.144 ng/mL and 1.686 ng/mL and 1.429 ng/mL and 2.362 ng/mL and 0.918 ng/mL and 1.614 ng/mL and 2.149 ng/mL and 1.809 ng/mL and 1.570 ng/mL and 2.769 ng/mL and 1.812 ng/mL and 2.173 ng/mL, the “Plasma concentration of famitinib, 72h” value (famitinib + rifampin period) was 0.642 ng/mL and 0.667 ng/mL and 0.311 ng/mL and 0.602 ng/mL and 0.641 ng/mL and 0.822 ng/mL and 0.539 ng/mL and 0.733 ng/mL and 0.767 ng/mL and 0.537 ng/mL and 0.432 ng/mL and 0.852 ng/mL and 0.220 ng/mL and 0.591 ng/mL and 0.800 ng/mL and 0.792 ng/mL and 0.514 ng/mL and 1.047 ng/mL and 0.712 ng/mL and 0.823 ng/mL and the “Plasma concentration of famitinib, 96h” value (famitinib + rifampin period) was 0.267 ng/mL and 0.261 ng/mL and 0.122 ng/mL and 0.206 ng/mL and 0.249 ng/mL and 0.328 ng/mL and 0.240 ng/mL and 0.269 ng/mL and 0.237 ng/mL and 0.168 ng/mL and 0.290 ng/mL and 0.089 ng/mL and 0.185 ng/mL and 0.302 ng/mL and 0.345 ng/mL and 0.219 ng/mL and 0.407 ng/mL and 0.325 ng/mL. For the same compound, the “Plasma concentration of famitinib, 144h” value (famitinib + rifampin period, LLOQ 0.050) was 0.055 ng/mL and 0.057 ng/mL and 0.070 ng/mL and 0.053 ng/mL and 0.072 ng/mL and 0.050 ng/mL and 0.065 ng/mL and 0.082 ng/mL and 0.051 ng/mL and 0.083 ng/mL and 0.064 ng/mL, the “Plasma concentration of famitinib, 1h” value (famitinib alone period) was 10.847 ng/mL and 12.773 ng/mL and 10.295 ng/mL and 10.969 ng/mL and 13.903 ng/mL and 26.555 ng/mL and the “Plasma concentration of famitinib, 2h” value (famitinib alone period) was 19.362 ng/mL and 17.877 ng/mL and 15.400 ng/mL and 16.503 ng/mL and 18.719 ng/mL and 35.638 ng/mL. The “Plasma concentration of famitinib, 3h” value (famitinib alone period) was 21.709 ng/mL and 20.490 ng/mL and 16.692 ng/mL and 20.933 ng/mL and 28.240 ng/mL and 37.318 ng/mL, the “Plasma concentration of famitinib, 4h” value (famitinib alone period) was 23.040 ng/mL and 20.547 ng/mL and 21.652 ng/mL and 19.902 ng/mL and 26.805 ng/mL and 37.143 ng/mL and the “Plasma concentration of famitinib, 5h” value (famitinib alone period) was 23.899 ng/mL and 31.460 ng/mL and 32.913 ng/mL and 34.455 ng/mL and 38.570 ng/mL and 47.417 ng/mL and 48.115 ng/mL. For the same compound, the “Plasma concentration of famitinib, 6h” value (famitinib alone period) was 27.121 ng/mL and 34.485 ng/mL and 36.103 ng/mL and 36.767 ng/mL and 33.489 ng/mL and 38.089 ng/mL and 45.213 ng/mL, the “Plasma concentration of famitinib, 8h” value (famitinib alone period) was 23.131 ng/mL and 32.006 ng/mL and 28.312 ng/mL and 40.047 ng/mL and 35.942 ng/mL and 34.604 ng/mL and 44.525 ng/mL and the “Plasma concentration of famitinib, 12h” value (famitinib alone period) was 33.868 ng/mL and 32.063 ng/mL and 29.892 ng/mL and 36.325 ng/mL and 38.189 ng/mL and 26.846 ng/mL and 30.046 ng/mL and 32.411 ng/mL and 29.990 ng/mL and 28.697 ng/mL and 22.626 ng/mL and 21.253 ng/mL and 29.809 ng/mL and 27.794 ng/mL and 35.209 ng/mL and 22.673 ng/mL and 25.658 ng/mL and 31.489 ng/mL and 20.180 ng/mL and 25.649 ng/mL. The “Plasma concentration of famitinib, 24h” value (famitinib alone period) was 22.869 ng/mL and 18.719 ng/mL and 18.827 ng/mL and 23.343 ng/mL and 22.964 ng/mL and 18.391 ng/mL and 23.365 ng/mL and 22.823 ng/mL and 20.812 ng/mL and 16.996 ng/mL and 13.694 ng/mL and 14.316 ng/mL and 17.298 ng/mL and 17.947 ng/mL and 23.155 ng/mL and 17.159 ng/mL and 16.424 ng/mL and 22.872 ng/mL and 15.646 ng/mL and 18.793 ng/mL, the “Plasma concentration of famitinib, 48h” value (famitinib alone period) was 9.513 ng/mL and 8.254 ng/mL and 8.105 ng/mL and 11.504 ng/mL and 11.192 ng/mL and 9.732 ng/mL and 11.197 ng/mL and 12.102 ng/mL and 11.799 ng/mL and 7.958 ng/mL and 6.357 ng/mL and 6.794 ng/mL and 7.622 ng/mL and 7.660 ng/mL and 12.046 ng/mL and 10.239 ng/mL and 9.122 ng/mL and 12.117 ng/mL and 10.002 ng/mL and 10.356 ng/mL and the “Plasma concentration of famitinib, 72h” value (famitinib alone period) was 3.686 ng/mL and 4.390 ng/mL and 3.971 ng/mL and 3.582 ng/mL and 6.835 ng/mL and 5.985 ng/mL and 5.799 ng/mL and 6.271 ng/mL and 7.017 ng/mL and 6.466 ng/mL and 4.181 ng/mL and 2.677 ng/mL and 3.396 ng/mL and 3.152 ng/mL and 3.579 ng/mL and 6.840 ng/mL and 6.734 ng/mL and 4.933 ng/mL and 5.444 ng/mL and 5.401 ng/mL and 5.502 ng/mL. For the same compound, the “Plasma concentration of famitinib, 96h” value (famitinib alone period) was 2.365 ng/mL and 2.387 ng/mL and 1.873 ng/mL and 1.665 ng/mL and 3.753 ng/mL and 3.141 ng/mL and 2.824 ng/mL and 3.335 ng/mL and 4.484 ng/mL and 3.258 ng/mL and 2.306 ng/mL and 1.285 ng/mL and 1.650 ng/mL and 1.224 ng/mL and 1.587 ng/mL and 3.633 ng/mL and 3.718 ng/mL and 2.477 ng/mL and 3.253 ng/mL and 3.695 ng/mL and 3.276 ng/mL, the “Plasma concentration of famitinib, 144h” value (famitinib alone period) was 0.893 ng/mL and 0.785 ng/mL and 0.595 ng/mL and 0.455 ng/mL and 1.139 ng/mL and 1.206 ng/mL and 1.138 ng/mL and 1.141 ng/mL and 1.626 ng/mL and 1.491 ng/mL and 0.727 ng/mL and 0.432 ng/mL and 0.652 ng/mL and 0.295 ng/mL and 0.483 ng/mL and 1.580 ng/mL and 1.789 ng/mL and 0.934 ng/mL and 1.050 ng/mL and 1.762 ng/mL and 1.408 ng/mL and the “Plasma concentration of famitinib, 192h” value (famitinib alone period) was 0.339 ng/mL and 0.310 ng/mL and 0.302 ng/mL and 0.177 ng/mL and 0.295 ng/mL and 0.575 ng/mL and 0.524 ng/mL and 0.462 ng/mL and 0.706 ng/mL and 0.718 ng/mL and 0.307 ng/mL and 0.155 ng/mL and 0.242 ng/mL and 0.098 ng/mL and 0.650 ng/mL and 0.830 ng/mL and 0.363 ng/mL and 0.410 ng/mL and 0.781 ng/mL and 0.642 ng/mL.
